The nature of series [1]: general procedure: Fmoc solid-phase peptide synthesis; trityl chloride resin; DIC/HOBt. The settings on record: whole synthesis, scale 10 mmol, TFA salt.
A short description of series [2]: general procedure: Fmoc solid-phase peptide synthesis; 4-methoxytrityl resin; DIC/HOBt. The settings on record: whole synthesis.
Series [3] is described as follows: general procedure: Fmoc solid-phase peptide synthesis; trityl, 2-chlorotrityl, 4-methyltrityl or 4-methoxytrityl resin (attachment through Orn/Lys side chain); DIC/HOBt. As to conditions: whole synthesis, scale 0.55 mmol, TFA salt (Atosiban).
Setting [4] is: scale 0.64 mmol, TFA salt (Atosiban).

For the substance Atosiban, the isolated mass in series [1] stood at 7.14 g; in series [2] (scale 1.0 mmol, TFA salt), 0.79 g. For the same substance, the isolated yield amounted to 44.8% in series [1] and 48.6% in series [2] (scale 1.0 mmol, TFA salt).
As for “Pyr-His-Trp-Ser-Tyr-D-Leu-Leu-Arg-Pro-NHEt”, in series [3], the isolated mass stood at 488.1 mg and the isolated yield is 61.5%.
Turning to “Pyr-His-Trp-Ser-Tyr-D-Ser(tBu)-Leu-Arg-Pro-Azagly-NH2”, in series [2] (setting [4]), the isolated mass was found to be 0.5553 g and the isolated yield came to 67.6%.
As to “Pyr-His-Trp-Ser-Tyr-D-Ser(tBu)-Leu-Arg-Pro-NHEt”, in series [3], the isolated mass is on record as 477.0 mg and the isolated yield was determined as 61.8%.

(Values after US20160137689 (published 2016).)
